Experiment [1] concerns the target HA-tagged FOXO3a, wild type (UniProt O43524). Kind of experiment: co-IP; FOXO3a (WT or TM) and Flag-SirT6 (WT or S338 mutants) expressed in HEK293 cells treated with 1 μM MK2206; IP of FOXO3a, western blot with anti-Flag.
The target of experiment [2] is FOXO3a TM mutant (T32, S253 and S315 changed to alanine) (UniProt O43524). Described as above.
Experiment [3] concerns the target HA-tagged FOXO3a, wild type (UniProt O43524). Nature of the experiment: co-IP; tagged proteins co-expressed in HEK293 cells; IP with anti-HA (FOXO3a), western blot with anti-Flag; for BRD4, BD1 and BD2 cells treated with 1 μM MK2206 for 2 days or 2 μM TSA + 4 mM nicotinamide overnight; for Sirt members cells without AKTi.
Experiment [4] deals with FOXO3a TM mutant (T32, S253 and S315 changed to alanine) (UniProt O43524). The experiment is described as above.
For experiment [5], the target named is FOXO3a (endogenous) (human (endogenous in BT474 and T47D)) (UniProt O43524). Nature of the experiment: co-IP; endogenous proteins from BT474 and T47D cell extracts; IP buffer 50 mM Tris-HCl pH 7.4, 150 mM NaCl, 0.2 mM EDTA, 0.2% NP40, 10% glycerol; IP with FOXO3a or AKT antibody and Protein G-Sepharose, western blot; cells untreated or treated with AKTi (1 μM, up to 4 days), TSA (2 μM) + nicotinamide (4 mM) overnight, or Lapatinib (1 μM, 4 days).

Amino acid sequences for entries named in this document (tags omitted). A change or cut given only in a name is not applied to a line headed by its entry. Chains listed by the source or under a name are the forms on record and can include a tag or linker.
UniProt O43524: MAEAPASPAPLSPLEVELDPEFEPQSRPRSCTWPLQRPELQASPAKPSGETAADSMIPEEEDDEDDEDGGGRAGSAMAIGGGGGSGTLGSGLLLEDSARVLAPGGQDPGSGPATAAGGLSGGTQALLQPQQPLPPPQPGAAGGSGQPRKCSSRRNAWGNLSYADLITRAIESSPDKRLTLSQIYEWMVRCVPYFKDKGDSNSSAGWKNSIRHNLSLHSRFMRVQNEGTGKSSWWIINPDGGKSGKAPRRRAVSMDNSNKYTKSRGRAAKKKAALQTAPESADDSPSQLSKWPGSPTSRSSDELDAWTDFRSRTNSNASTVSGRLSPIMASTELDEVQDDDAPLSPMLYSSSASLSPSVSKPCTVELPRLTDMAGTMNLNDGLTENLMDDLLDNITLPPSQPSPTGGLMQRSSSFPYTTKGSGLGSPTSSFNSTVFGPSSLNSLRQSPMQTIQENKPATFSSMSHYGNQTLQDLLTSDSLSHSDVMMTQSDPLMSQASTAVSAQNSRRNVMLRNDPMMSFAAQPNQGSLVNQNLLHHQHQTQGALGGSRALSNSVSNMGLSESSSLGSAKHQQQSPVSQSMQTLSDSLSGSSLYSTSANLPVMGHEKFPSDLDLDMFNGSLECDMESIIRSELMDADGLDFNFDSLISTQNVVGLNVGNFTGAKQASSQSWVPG
FOXO3a TM mutant (T32, S253 and S315 changed to alanine) (O43524, form named): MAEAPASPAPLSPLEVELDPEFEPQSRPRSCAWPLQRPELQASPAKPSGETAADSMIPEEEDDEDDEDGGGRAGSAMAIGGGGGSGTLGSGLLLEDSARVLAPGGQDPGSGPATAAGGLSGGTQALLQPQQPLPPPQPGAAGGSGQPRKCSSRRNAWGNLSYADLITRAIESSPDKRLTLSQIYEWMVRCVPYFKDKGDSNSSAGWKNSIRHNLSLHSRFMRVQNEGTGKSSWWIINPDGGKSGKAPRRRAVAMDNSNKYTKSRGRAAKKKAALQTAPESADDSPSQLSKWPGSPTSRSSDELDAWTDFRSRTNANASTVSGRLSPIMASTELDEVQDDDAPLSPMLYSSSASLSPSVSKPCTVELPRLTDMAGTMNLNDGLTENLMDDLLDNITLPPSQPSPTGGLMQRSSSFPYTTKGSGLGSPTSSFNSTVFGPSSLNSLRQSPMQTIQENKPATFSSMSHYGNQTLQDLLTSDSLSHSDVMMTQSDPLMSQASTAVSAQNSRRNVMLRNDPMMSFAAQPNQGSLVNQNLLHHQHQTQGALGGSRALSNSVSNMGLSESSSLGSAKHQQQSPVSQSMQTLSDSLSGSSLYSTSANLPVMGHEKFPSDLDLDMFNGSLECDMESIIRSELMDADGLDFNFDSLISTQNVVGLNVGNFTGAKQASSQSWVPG
UniProt Q8N6T7: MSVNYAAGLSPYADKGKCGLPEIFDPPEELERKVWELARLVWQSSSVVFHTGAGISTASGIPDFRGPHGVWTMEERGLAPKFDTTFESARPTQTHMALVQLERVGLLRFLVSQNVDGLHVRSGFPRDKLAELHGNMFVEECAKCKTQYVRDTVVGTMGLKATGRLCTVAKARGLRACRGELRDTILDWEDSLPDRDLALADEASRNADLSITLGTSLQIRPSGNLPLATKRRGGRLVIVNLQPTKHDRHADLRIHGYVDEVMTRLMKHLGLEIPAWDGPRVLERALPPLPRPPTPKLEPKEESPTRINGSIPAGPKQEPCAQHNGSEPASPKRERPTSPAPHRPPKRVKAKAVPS

For experiment [6] the target is unchanged. Kind of experiment: condition: only cells treated with AKTi (1 μM) for 4 day; co-IP; endogenous proteins from BT474 and T47D cells treated with AKTi (MK2206, AZD5363 or GSK690693, 1 μM); IP with FOXO3a or AKT antibody, western blot for SirT6.

These are yes or no findings as the source states them, for the method shown. Binding seen in cells or lysates may run through a third protein. Some results given as binding are weak or reduced against the parent protein; the word gives no strength.

In the case of “Flag-tagged SirT6, wild type (from UniProt Q8N6T7 1-355)”, the binding result is reported as “binds” in experiment [1], “no binding (condition: cells treated with 1 μM MK2206)” in experiment [2], “binds” in experiment [3] and “binds” in experiment [4].
On to “SirT6 (endogenous) (from UniProt Q8N6T7 1-355)”, for which the binding entry in experiment [5] is on record as “binds”; in experiment [6] it was “no binding”.
On to “SirT6 S338E mutant (from UniProt Q8N6T7 1-355)”, for which the binding result in experiment [1] and in experiment [3] was “binds” each time.
